Paper PMC9703712
These are yes or no findings as the source states them, for the method shown. Binding seen in cells or lysates may run through a third protein. Some binding calls cover weakened binding; strength is not graded here. For part of these data: Tags and fused reporters may be left off the sequences shown.

Sequences of proteins named here, by UniProt entry; tags and fusion partners are left off.
UniProt Q03135: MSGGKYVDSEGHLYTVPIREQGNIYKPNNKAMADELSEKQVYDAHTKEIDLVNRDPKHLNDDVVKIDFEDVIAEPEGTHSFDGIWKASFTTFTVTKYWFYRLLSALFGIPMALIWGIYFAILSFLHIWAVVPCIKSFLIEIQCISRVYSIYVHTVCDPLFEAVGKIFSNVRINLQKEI

T1: endogenous UBE2O (human (endogenous in HeLa, U-2 OS, U251)) (UniProt Q9C0C9)
T1 sequence: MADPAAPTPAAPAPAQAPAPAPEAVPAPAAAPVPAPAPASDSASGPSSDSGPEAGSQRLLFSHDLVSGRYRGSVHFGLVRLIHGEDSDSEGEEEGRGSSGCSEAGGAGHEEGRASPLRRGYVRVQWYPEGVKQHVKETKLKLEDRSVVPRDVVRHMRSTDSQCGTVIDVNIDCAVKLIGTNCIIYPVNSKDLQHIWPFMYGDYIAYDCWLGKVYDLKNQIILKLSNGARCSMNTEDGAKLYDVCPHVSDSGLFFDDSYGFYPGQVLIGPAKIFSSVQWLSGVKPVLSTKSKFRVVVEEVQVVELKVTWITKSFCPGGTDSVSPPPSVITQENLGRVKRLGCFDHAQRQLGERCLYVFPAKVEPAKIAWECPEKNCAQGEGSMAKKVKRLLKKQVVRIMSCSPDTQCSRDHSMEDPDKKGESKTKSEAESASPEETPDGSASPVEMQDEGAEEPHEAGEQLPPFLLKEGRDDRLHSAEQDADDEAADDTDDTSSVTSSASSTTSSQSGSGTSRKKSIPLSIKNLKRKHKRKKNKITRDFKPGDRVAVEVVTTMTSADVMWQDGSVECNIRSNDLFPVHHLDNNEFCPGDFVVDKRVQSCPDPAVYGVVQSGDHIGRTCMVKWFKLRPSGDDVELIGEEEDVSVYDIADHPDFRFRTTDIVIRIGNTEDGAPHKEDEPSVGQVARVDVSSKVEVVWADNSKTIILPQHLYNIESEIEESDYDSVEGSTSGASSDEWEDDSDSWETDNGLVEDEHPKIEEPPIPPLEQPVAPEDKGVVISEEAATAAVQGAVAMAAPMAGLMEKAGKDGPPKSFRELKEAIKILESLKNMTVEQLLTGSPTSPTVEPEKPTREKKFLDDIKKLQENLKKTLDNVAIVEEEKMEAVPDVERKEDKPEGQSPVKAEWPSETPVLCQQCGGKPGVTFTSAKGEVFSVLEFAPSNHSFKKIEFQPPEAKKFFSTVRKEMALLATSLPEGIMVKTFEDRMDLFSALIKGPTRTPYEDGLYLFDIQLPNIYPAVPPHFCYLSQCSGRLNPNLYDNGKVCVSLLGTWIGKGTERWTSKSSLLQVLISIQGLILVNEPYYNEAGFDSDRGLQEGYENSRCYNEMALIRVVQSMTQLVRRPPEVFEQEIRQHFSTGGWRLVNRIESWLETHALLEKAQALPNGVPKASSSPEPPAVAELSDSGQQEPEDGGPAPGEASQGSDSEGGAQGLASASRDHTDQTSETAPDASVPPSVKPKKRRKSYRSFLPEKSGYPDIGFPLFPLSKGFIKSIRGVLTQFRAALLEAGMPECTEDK

T2: PTRF (as used in Additional file 2: Figure S3A) (human) (UniProt Q6NZI2)
T2 sequence: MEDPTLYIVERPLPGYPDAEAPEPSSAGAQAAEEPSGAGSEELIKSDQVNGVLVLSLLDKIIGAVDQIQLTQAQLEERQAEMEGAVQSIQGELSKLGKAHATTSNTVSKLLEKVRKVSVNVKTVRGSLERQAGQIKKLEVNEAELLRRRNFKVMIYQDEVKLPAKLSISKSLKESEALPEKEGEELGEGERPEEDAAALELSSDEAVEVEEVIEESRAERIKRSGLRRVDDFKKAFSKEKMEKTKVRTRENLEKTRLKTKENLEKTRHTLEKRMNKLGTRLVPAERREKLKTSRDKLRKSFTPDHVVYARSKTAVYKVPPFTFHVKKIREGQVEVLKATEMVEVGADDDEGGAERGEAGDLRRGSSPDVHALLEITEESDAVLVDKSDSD

T3: Flag-PTRF (human) (UniProt Q6NZI2)
T3 sequence: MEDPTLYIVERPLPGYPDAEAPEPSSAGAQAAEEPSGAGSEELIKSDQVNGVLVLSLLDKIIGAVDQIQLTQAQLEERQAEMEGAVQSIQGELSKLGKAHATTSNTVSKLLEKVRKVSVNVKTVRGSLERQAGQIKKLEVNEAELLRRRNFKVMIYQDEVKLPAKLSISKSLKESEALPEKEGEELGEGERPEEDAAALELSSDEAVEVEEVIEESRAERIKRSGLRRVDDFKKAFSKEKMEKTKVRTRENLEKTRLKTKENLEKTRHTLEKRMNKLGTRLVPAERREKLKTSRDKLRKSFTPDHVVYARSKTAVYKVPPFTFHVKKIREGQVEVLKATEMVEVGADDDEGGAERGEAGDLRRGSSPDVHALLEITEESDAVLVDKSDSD


How the values were obtained:
[1] = molecular target: T1, endogenous UBE2O (human (endogenous in HeLa, U-2 OS, U251)); assay: co-IP; endogenous; U251 cells, a PTRF high cell line (Figure S1C); precipitating antibody not given
[2] = molecular target: T2, PTRF (as used in Additional file 2: Figure S3A) (human); assay: co-IP; Figure S3A; cells, bait and constructs not given; with UBE2O
Flag-PTRF (human) = molecular target: T3, Flag-PTRF (human); assay: co-IP; HEK293T cells co-transfected (PEI); lysed in WCE lysis buffer (10% glycerol, 150 mM NaCl, 50 mM Tris-HCl pH 8.0, 0.5% NP40); Flag M2 beads, 4 °C, 1.5 h; western blot

binding [1] | binding [2] | binding (Flag-PTRF (human)) | Molecule
binds | binds | – | caveolin-1 (CAV1) (from UniProt Q03135 1-178)
– | – | binds | UBE2O-Myc (enzyme, UniProt Q9C0C9 1-1292) MADPAAPTPAAPAPAQAPAPAPEAVPAPAAAPVPAPAPASDSASGPSSDSGPEAGSQRLLFSHDLVSGRYRGSVHFGLVRLIHGEDSDSEGEEEGRGSSGCSEAGGAGHEEGRASPLRRGYVRVQWYPEGVKQHVKETKLKLEDRSVVPRDVVRHMRSTDSQCGTVIDVNIDCAVKLIGTNCIIYPVNSKDLQHIWPFMYGDYIAYDCWLGKVYDLKNQIILKLSNGARCSMNTEDGAKLYDVCPHVSDSGLFFDDSYGFYPGQVLIGPAKIFSSVQWLSGVKPVLSTKSKFRVVVEEVQVVELKVTWITKSFCPGGTDSVSPPPSVITQENLGRVKRLGCFDHAQRQLGERCLYVFPAKVEPAKIAWECPEKNCAQGEGSMAKKVKRLLKKQVVRIMSCSPDTQCSRDHSMEDPDKKGESKTKSEAESASPEETPDGSASPVEMQDEGAEEPHEAGEQLPPFLLKEGRDDRLHSAEQDADDEAADDTDDTSSVTSSASSTTSSQSGSGTSRKKSIPLSIKNLKRKHKRKKNKITRDFKPGDRVAVEVVTTMTSADVMWQDGSVECNIRSNDLFPVHHLDNNEFCPGDFVVDKRVQSCPDPAVYGVVQSGDHIGRTCMVKWFKLRPSGDDVELIGEEEDVSVYDIADHPDFRFRTTDIVIRIGNTEDGAPHKEDEPSVGQVARVDVSSKVEVVWADNSKTIILPQHLYNIESEIEESDYDSVEGSTSGASSDEWEDDSDSWETDNGLVEDEHPKIEEPPIPPLEQPVAPEDKGVVISEEAATAAVQGAVAMAAPMAGLMEKAGKDGPPKSFRELKEAIKILESLKNMTVEQLLTGSPTSPTVEPEKPTREKKFLDDIKKLQENLKKTLDNVAIVEEEKMEAVPDVERKEDKPEGQSPVKAEWPSETPVLCQQCGGKPGVTFTSAKGEVFSVLEFAPSNHSFKKIEFQPPEAKKFFSTVRKEMALLATSLPEGIMVKTFEDRMDLFSALIKGPTRTPYEDGLYLFDIQLPNIYPAVPPHFCYLSQCSGRLNPNLYDNGKVCVSLLGTWIGKGTERWTSKSSLLQVLISIQGLILVNEPYYNEAGFDSDRGLQEGYENSRCYNEMALIRVVQSMTQLVRRPPEVFEQEIRQHFSTGGWRLVNRIESWLETHALLEKAQALPNGVPKASSSPEPPAVAELSDSGQQEPEDGGPAPGEASQGSDSEGGAQGLASASRDHTDQTSETAPDASVPPSVKPKKRRKSYRSFLPEKSGYPDIGFPLFPLSKGFIKSIRGVLTQFRAALLEAGMPECTEDK
